Results from paper PMC6177441.
These are yes or no findings as the source states them, for the method shown. Binding seen in cells or lysates may run through a third protein. Some results given as binding are weak or reduced against the parent protein; the word gives no strength.

Chains of the proteins cited; added tags and fusions are not shown.
UniProt P23242: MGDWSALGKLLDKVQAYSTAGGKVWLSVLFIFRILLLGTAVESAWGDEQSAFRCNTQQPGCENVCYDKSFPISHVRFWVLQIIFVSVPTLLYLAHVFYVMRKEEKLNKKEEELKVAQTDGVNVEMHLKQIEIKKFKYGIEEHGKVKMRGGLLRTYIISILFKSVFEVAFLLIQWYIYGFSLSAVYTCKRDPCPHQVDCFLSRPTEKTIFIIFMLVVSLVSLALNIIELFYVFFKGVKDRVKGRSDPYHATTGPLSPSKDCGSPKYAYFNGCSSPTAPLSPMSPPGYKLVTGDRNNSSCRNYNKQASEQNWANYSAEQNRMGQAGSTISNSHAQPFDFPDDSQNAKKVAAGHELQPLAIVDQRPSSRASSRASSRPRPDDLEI

T1: Cx43-interacting protein of 85 kDa (CIP85) (mouse (endogenous in neonatal mouse ventricular myocytes)) (UniProt Q8VCZ6)
T1 sequence: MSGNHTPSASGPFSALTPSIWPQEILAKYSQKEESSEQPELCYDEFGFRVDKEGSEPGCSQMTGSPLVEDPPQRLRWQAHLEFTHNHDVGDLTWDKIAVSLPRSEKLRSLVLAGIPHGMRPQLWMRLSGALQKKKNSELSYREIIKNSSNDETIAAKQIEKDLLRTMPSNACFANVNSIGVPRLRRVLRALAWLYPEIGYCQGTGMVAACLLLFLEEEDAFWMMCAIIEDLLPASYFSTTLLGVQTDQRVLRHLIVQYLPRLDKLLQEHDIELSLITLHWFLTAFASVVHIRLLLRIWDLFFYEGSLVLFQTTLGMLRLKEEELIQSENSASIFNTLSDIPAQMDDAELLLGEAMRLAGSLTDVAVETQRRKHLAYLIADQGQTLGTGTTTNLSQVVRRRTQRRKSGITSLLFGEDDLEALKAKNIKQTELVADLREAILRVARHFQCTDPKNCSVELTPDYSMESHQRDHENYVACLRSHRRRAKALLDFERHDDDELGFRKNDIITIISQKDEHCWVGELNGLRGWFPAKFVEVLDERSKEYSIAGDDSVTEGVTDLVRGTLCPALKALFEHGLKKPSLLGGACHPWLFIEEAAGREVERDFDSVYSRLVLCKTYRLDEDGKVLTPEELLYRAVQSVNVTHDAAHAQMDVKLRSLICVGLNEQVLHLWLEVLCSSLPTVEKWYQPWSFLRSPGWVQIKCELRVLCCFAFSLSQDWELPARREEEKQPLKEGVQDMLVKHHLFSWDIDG


How the values were obtained:
[1] = target: T1, Cx43-interacting protein of 85 kDa (CIP85) (mouse (endogenous in neonatal mouse ventricular myocytes)); experiment: co-IP; endogenous proteins in lysate of cultured NMVMs (RIPA lysis buffer: 50 mM Tris pH 7.4, 150 mM NaCl, 1% Triton X-100, 1% sodium deoxycholate, 0.1% SDS), 4 °C, precipitated with anti-Cx43 or anti-CIP85 antibody, protein A/G plus-agarose beads, immunoblot; also in NMVMs transfected with pFD or pFD-Mut (less Cx43 co-precipitated with pFD)
[2] = target: connexin43 (Cx43) (mouse (endogenous in neonatal mouse ventricular myocytes)) (UniProt P23242); experiment: as above

Molecule	binding [1]	binding [2]
connexin43 (Cx43) (from UniProt P23242 1-382)	binds	
Cx43-interacting protein of 85 kDa (CIP85) (protein, UniProt Q8VCZ6 1-750) MSGNHTPSASGPFSALTPSIWPQEILAKYSQKEESSEQPELCYDEFGFRVDKEGSEPGCSQMTGSPLVEDPPQRLRWQAHLEFTHNHDVGDLTWDKIAVSLPRSEKLRSLVLAGIPHGMRPQLWMRLSGALQKKKNSELSYREIIKNSSNDETIAAKQIEKDLLRTMPSNACFANVNSIGVPRLRRVLRALAWLYPEIGYCQGTGMVAACLLLFLEEEDAFWMMCAIIEDLLPASYFSTTLLGVQTDQRVLRHLIVQYLPRLDKLLQEHDIELSLITLHWFLTAFASVVHIRLLLRIWDLFFYEGSLVLFQTTLGMLRLKEEELIQSENSASIFNTLSDIPAQMDDAELLLGEAMRLAGSLTDVAVETQRRKHLAYLIADQGQTLGTGTTTNLSQVVRRRTQRRKSGITSLLFGEDDLEALKAKNIKQTELVADLREAILRVARHFQCTDPKNCSVELTPDYSMESHQRDHENYVACLRSHRRRAKALLDFERHDDDELGFRKNDIITIISQKDEHCWVGELNGLRGWFPAKFVEVLDERSKEYSIAGDDSVTEGVTDLVRGTLCPALKALFEHGLKKPSLLGGACHPWLFIEEAAGREVERDFDSVYSRLVLCKTYRLDEDGKVLTPEELLYRAVQSVNVTHDAAHAQMDVKLRSLICVGLNEQVLHLWLEVLCSSLPTVEKWYQPWSFLRSPGWVQIKCELRVLCCFAFSLSQDWELPARREEEKQPLKEGVQDMLVKHHLFSWDIDG		binds
